PubChem BioAssay AID1053208 | Peter MacCallum Cancer Centre | 2014
The whole screen tested about 17,000 reagents; this is an unselected part. 788 of all reagents (4.7%) count as active. 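Calls rest on z-score classes alone; an extra cut-off of viability at most 70% of control was not applied to them.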

Purpose: 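Synthetic lethal interactions between gene loss and doxorubicin in osteosarcoma cells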 (primary screen)
System: mouse osteosarcoma cells, early-passage culture from an engineered mouse model of fibroblastic bone tumour
Knock-down reagent: siRNA pool against mouse genes, 40 nM
Timing: about 120 h (48 h before drug, then 72 h with drug)
Challenge: doxorubicin 100 nM for 72 h, roughly 30-40% inhibitory dose
Measured: 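Luminescent ATP signal taken as viability with or without 100 nM doxorubicin for 72 h; mean of two wells set against non-targeting siRNA and turned into robust z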
Reading the numbers: viability z-score with doxorubicin and doxorubicin viability vs non-targeting: higher = more viable cells under doxorubicin; viability z-score without drug: higher = more viable cells with knock-down alone; z-score of drug to no-drug ratio: higher = less drug sensitisation by knock-down
Active means: 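a pool counts as active when its viability z-score with doxorubicin is -2 or below and its z-score without drug lies between -2 and 2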

gene symbol,combined z-score class,viability z-score with doxorubicin,viability z-score without drug,z-score of drug to no-drug ratio,doxorubicin viability vs non-targeting,activity call
Ufm1,no change with or without drug,-0.67,0.17,-0.67,0.88,inactive
Birc2,high cell count with doxorubicin only,2.14,0.67,1.8,1.13,inactive
Ypel1,no change with or without drug,0.11,1.52,-0.79,0.95,inactive
Yipf5,no change with or without drug,0.22,-0.17,0.45,0.96,inactive
Gns,no change with or without drug,0.45,-0.51,1.01,0.98,inactive
Parp9,no change with or without drug,-0.34,0.84,-0.79,0.91,inactive
Slc38a1,no change with or without drug,-1.12,0.17,-1.12,0.84,inactive
Ndufb11b,no change with or without drug,1.01,0.51,0.79,1.03,inactive
Or8g19,high cell count with doxorubicin only,2.02,1.35,1.24,1.12,inactive
Atxn2l,no change with or without drug,-0.22,0.51,-0.45,0.92,inactive
Syn2,no change with or without drug,1.24,1.69,0.22,1.05,inactive
Abhd16a,high cell count with doxorubicin only,2.02,-0.17,2.36,1.12,inactive
Vmn2r42,no change with or without drug,-1.35,-0.84,-0.79,0.82,inactive
Snupn,no change with or without drug,-0.9,-0.17,-0.79,0.86,inactive
Acbd5,no change with or without drug,-0.22,-0.17,0,0.92,inactive
Or5b24,no change with or without drug,-0.45,0,-0.34,0.9,inactive
Pkig,no change with or without drug,0.45,0.51,0.22,0.98,inactive
Or1j20,no change with or without drug,0.22,-0.84,1.01,0.96,inactive
Lrrc19,low cell count with and without drug,-2.59,-3.54,-0.22,0.71,inactive
Rps6ka6,no change with or without drug,0.67,-1.18,1.8,1,inactive
Ciapin1,no change with or without drug,1.01,0.51,0.79,1.03,inactive
C2,no change with or without drug,1.8,0.84,1.35,1.1,inactive
Pus1,no change with or without drug,-1.24,0.17,-1.35,0.83,inactive
Dlgap4,no change with or without drug,-0.22,0.51,-0.45,0.92,inactive
Prss35,no change with or without drug,0.67,1.52,-0.22,1,inactive
Nkx2-4,no change with or without drug,-0.67,-1.18,0.22,0.88,inactive
Slc22a12,no change with or without drug,-0.67,1.52,-1.46,0.88,inactive
Or11h6,no change with or without drug,-0.11,0.67,-0.45,0.93,inactive
AMIGO,no change with or without drug,0,-0.67,0.56,0.94,inactive
Or8b39,no change with or without drug,0,0.51,-0.22,0.94,inactive
Qrfp,no change with or without drug,-0.9,-0.17,-0.79,0.86,inactive
Riox1,low cell count without drug only,1.01,-3.88,5.06,1.03,inactive
Ubiad1,low cell count with doxorubicin only,-2.7,-0.17,-2.7,0.7,active
Pard3b,no change with or without drug,-0.56,1.18,-1.24,0.89,inactive
Or5i1,no change with or without drug,0.45,-0.51,1.01,0.98,inactive
Il17d,no change with or without drug,0,0.17,0,0.94,inactive
Or51q1,no change with or without drug,-1.57,-1.18,-0.79,0.8,inactive
Or13p3,no change with or without drug,-0.56,0.51,-0.79,0.89,inactive
Csnk2a2,no change with or without drug,0.45,1.52,-0.45,0.98,inactive

A portion taken from the entries so far:
gene symbol,combined z-score class,viability z-score with doxorubicin,viability z-score without drug,z-score of drug to no-drug ratio,doxorubicin viability vs non-targeting,activity call
Prss35,no change with or without drug,0.67,1.52,-0.22,1,inactive
Nkx2-4,no change with or without drug,-0.67,-1.18,0.22,0.88,inactive
Slc22a12,no change with or without drug,-0.67,1.52,-1.46,0.88,inactive
Or11h6,no change with or without drug,-0.11,0.67,-0.45,0.93,inactive
AMIGO,no change with or without drug,0,-0.67,0.56,0.94,inactive
Or8b39,no change with or without drug,0,0.51,-0.22,0.94,inactive
Qrfp,no change with or without drug,-0.9,-0.17,-0.79,0.86,inactive

More reagents:
gene symbol,combined z-score class,viability z-score with doxorubicin,viability z-score without drug,z-score of drug to no-drug ratio,doxorubicin viability vs non-targeting,activity call
Rif1,no change with or without drug,0.67,0.51,0.45,1,inactive
Tbrg1,high cell count without drug only,0.67,2.87,-1.01,1,inactive
Nme8,no change with or without drug,0.34,0.51,0.11,0.97,inactive
TSGA8,low cell count with doxorubicin only,-2.36,-0.51,-2.14,0.73,active
Neu3,no change with or without drug,-0.22,0.51,-0.45,0.92,inactive
Scp2d1,low cell count with doxorubicin only,-2.02,-1.01,-1.46,0.76,active
Defa29,no change with or without drug,0.56,1.52,-0.34,0.99,inactive
Vmn1r201,no change with or without drug,-1.8,-0.17,-1.69,0.78,inactive
Mrpl34,no change with or without drug,0.67,-0.84,1.46,1,inactive
Tex18,no change with or without drug,1.57,1.85,0.45,1.08,inactive
Lgals6,no change with or without drug,0.67,0.34,0.56,1,inactive
Ubqln3,no change with or without drug,-1.12,0.34,-1.24,0.84,inactive
Or8g53,no change with or without drug,-1.57,-0.84,-1.01,0.8,inactive
Celf1,no change with or without drug,-0.34,0,-0.22,0.91,inactive
Chrna4,no change with or without drug,-1.12,-0.34,-0.9,0.84,inactive
Or9g19,no change with or without drug,-1.8,-0.67,-1.35,0.78,inactive
Ghrhr,no change with or without drug,-0.9,0,-0.79,0.86,inactive
Rac3,no change with or without drug,-0.11,-0.51,0.34,0.93,inactive
Tafa1,high cell count without drug only,1.35,2.19,0,1.06,inactive
Tectb,no change with or without drug,-1.57,-1.52,-0.56,0.8,inactive
Slc7a1,high cell count with and without drug,3.26,2.7,1.46,1.23,inactive
Psmg3,no change with or without drug,-0.67,1.18,-1.35,0.88,inactive
Tln1,no change with or without drug,-1.01,-1.52,0.11,0.85,inactive
Dtna,high cell count with doxorubicin only,2.02,-0.17,2.36,1.12,inactive
